Common to all, as to experiment: co-IP; HEK293T cells co-transfected with C-terminally HA- and Myc-tagged copies of the same EpCAM variant; lysate in 50 mM Tris/HCl pH 8.0, 1% NP-40, 500 mM NaCl; anti-HA antibody with Protein A/G agarose, 16 h at 4°C; anti-Myc western blot, also of 1:3 serial dilutions of the eluate
(In western blotting, separated proteins are transferred to a membrane and probed.)

For assay [1], the target named is T1, human EpCAM, wildtype (human), P16422.
T1 chain: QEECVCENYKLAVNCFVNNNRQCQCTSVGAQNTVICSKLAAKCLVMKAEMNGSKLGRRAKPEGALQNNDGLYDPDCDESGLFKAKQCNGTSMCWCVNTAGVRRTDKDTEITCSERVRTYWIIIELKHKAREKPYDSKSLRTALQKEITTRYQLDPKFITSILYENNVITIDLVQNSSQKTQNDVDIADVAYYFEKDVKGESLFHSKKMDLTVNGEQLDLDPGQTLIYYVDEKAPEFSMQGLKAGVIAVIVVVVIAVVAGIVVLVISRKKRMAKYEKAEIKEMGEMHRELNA
The settings on record: remark: other sources report otherwise.

Assay [2] has as its target human EpCAM R80A (human) (UniProt P16422).
The target of assay [3] is human EpCAM R80A/R81A (human) (UniProt P16422).
For assay [4], the target named is human EpCAM R80Q (human) (UniProt P16422).
The target of assay [5] is human EpCAM R80L (human) (UniProt P16422).

No constants are given. Whether binding was seen depends on the method and setting. In cells and extracts the contact can be indirect. Some results given as binding are weak or reduced against the parent protein; the word gives no strength.

B1: human EpCAM, wildtype, P16422 24-314 (protein)
chain: QEECVCENYKLAVNCFVNNNRQCQCTSVGAQNTVICSKLAAKCLVMKAEMNGSKLGRRAKPEGALQNNDGLYDPDCDESGLFKAKQCNGTSMCWCVNTAGVRRTDKDTEITCSERVRTYWIIIELKHKAREKPYDSKSLRTALQKEITTRYQLDPKFITSILYENNVITIDLVQNSSQKTQNDVDIADVAYYFEKDVKGESLFHSKKMDLTVNGEQLDLDPGQTLIYYVDEKAPEFSMQGLKAGVIAVIVVVVIAVVAGIVVLVISRKKRMAKYEKAEIKEMGEMHRELNA
As for B1, the binding result in assay [1] was “binds”.

B2: human EpCAM R80A (protein, UniProt P16422 24-314)
chain: QEECVCENYKLAVNCFVNNNRQCQCTSVGAQNTVICSKLAAKCLVMKAEMNGSKLGARAKPEGALQNNDGLYDPDCDESGLFKAKQCNGTSMCWCVNTAGVRRTDKDTEITCSERVRTYWIIIELKHKAREKPYDSKSLRTALQKEITTRYQLDPKFITSILYENNVITIDLVQNSSQKTQNDVDIADVAYYFEKDVKGESLFHSKKMDLTVNGEQLDLDPGQTLIYYVDEKAPEFSMQGLKAGVIAVIVVVVIAVVAGIVVLVISRKKRMAKYEKAEIKEMGEMHRELNA
Consider B2, for which, in assay [2], the binding result is “binds”.

B3: human EpCAM R80A/R81A (protein, UniProt P16422 24-314)
chain: QEECVCENYKLAVNCFVNNNRQCQCTSVGAQNTVICSKLAAKCLVMKAEMNGSKLGAAAKPEGALQNNDGLYDPDCDESGLFKAKQCNGTSMCWCVNTAGVRRTDKDTEITCSERVRTYWIIIELKHKAREKPYDSKSLRTALQKEITTRYQLDPKFITSILYENNVITIDLVQNSSQKTQNDVDIADVAYYFEKDVKGESLFHSKKMDLTVNGEQLDLDPGQTLIYYVDEKAPEFSMQGLKAGVIAVIVVVVIAVVAGIVVLVISRKKRMAKYEKAEIKEMGEMHRELNA
Consider B3, for which the binding entry in assay [3] is recorded as “binds”.

B4: human EpCAM R80Q (protein, UniProt P16422 24-314)
chain: QEECVCENYKLAVNCFVNNNRQCQCTSVGAQNTVICSKLAAKCLVMKAEMNGSKLGQRAKPEGALQNNDGLYDPDCDESGLFKAKQCNGTSMCWCVNTAGVRRTDKDTEITCSERVRTYWIIIELKHKAREKPYDSKSLRTALQKEITTRYQLDPKFITSILYENNVITIDLVQNSSQKTQNDVDIADVAYYFEKDVKGESLFHSKKMDLTVNGEQLDLDPGQTLIYYVDEKAPEFSMQGLKAGVIAVIVVVVIAVVAGIVVLVISRKKRMAKYEKAEIKEMGEMHRELNA
B4: in assay [4], the binding result is on record as “binds”.

B5: human EpCAM R80L (protein, UniProt P16422 24-314)
chain: QEECVCENYKLAVNCFVNNNRQCQCTSVGAQNTVICSKLAAKCLVMKAEMNGSKLGLRAKPEGALQNNDGLYDPDCDESGLFKAKQCNGTSMCWCVNTAGVRRTDKDTEITCSERVRTYWIIIELKHKAREKPYDSKSLRTALQKEITTRYQLDPKFITSILYENNVITIDLVQNSSQKTQNDVDIADVAYYFEKDVKGESLFHSKKMDLTVNGEQLDLDPGQTLIYYVDEKAPEFSMQGLKAGVIAVIVVVVIAVVAGIVVLVISRKKRMAKYEKAEIKEMGEMHRELNA
B5: the binding result in assay [5] was “binds”.

The values above are taken from article PMC10482385.
